# The list is a part of this screen's results and no random one: it gathers tests that were run many times, whatever their T/C, doses with no T/C, and many T/C values between a quarter and a half above the control. Other doses and runs of a compound stand elsewhere. T/C: endpoint of the treated group in % of that of the vehicle group. Schedule codes are those of the source, read here as Q, the interval in days (D) or hours (H), X, the number of doses. Some values lie below zero, which means that the treated tumours became smaller. Some T/C values are followed by the survivors on the day toxicity was checked, most often the fifth; without a count, all were alive then. Some doses were run more than once; the values are given in rising order. Counts like (3×) give the number of equal values in this list. Some entries give survivors of the animals treated and no T/C: the source files T/C as zero there, which appears to mark a toxic dose or a test without result, not a measured value. Counts of survivors are from the toxicity check (mostly the fifth day) where no day follows; animals may have died later.
# Tested on: MX-1 breast xenograft, nude mice, tumor weight T/C
# Test: NCI In Vivo Anticancer Drug Screen. Data for tumor model Human Mammary Carcinoma MX-1 Xenograft (intrarenal inoculation) in NU/NU Swiss (nude) mice
# Conditions: T/C endpoint: mean tumor weight change, higher T/C = larger tumour; for T/C: evaluated on day 11
# How it was run: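 Antitumour effect measured in vivo against vehicle controls, expressed as T/C.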
# [1] = dose: 1.0 mg/kg/injection, schedule: Q01DX010 (sc), vehicle: water
# [2] = dose: 2.0 mg/kg/injection, schedule: Q01DX010 (sc), vehicle: water
# [3] = dose: 4.0 mg/kg/injection, schedule: Q01DX010 (sc), vehicle: water
# [4] = dose: 1200.0 mg/kg/injection, schedule: Q04DX003 (sc), vehicle: saline with Tween-80
# [5] = dose: 1600.0 mg/kg/injection, schedule: Q04DX003 (sc), vehicle: saline with Tween-80
# [6] = dose: 600.0 mg/kg/injection, schedule: Q04DX003 (ip), vehicle: saline with Tween-80
# [7] = dose: 1200.0 mg/kg/injection, schedule: Q04DX003 (ip), vehicle: saline with Tween-80
smiles,measurement,setting,value
COc1cccc2c1C(=O)c1c(O)c3c(c(O)c1C2=O)C[C@@](O)(C(=O)CO)C[C@@H]3OC1CC(N)C(O)C(C)O1 (stereo partly drawn),T/C,"dose: 0.5 mg/kg/injection, schedule: Q01DX010 (sc), vehicle: water","3, 20 [2 of 2 alive on day 11], 37, 58 [2 of 3 alive on day 11], 97, 103, 106 [2 of 3 alive on day 11], 133, 165, 204 % of control [2 of 3 alive on day 11]"
same,T/C,[1],"-52, 31, 47, 61, 70 [2 of 3 alive on day 11], 88, 89, 98 [2 of 3 alive on day 11], 114, 166, 228 % of control"
same,survivor count,[1],1 of 2 on day 11
same,survivor count,"dose: 2.0 mg/kg/injection, schedule: Q01DX010 (ip), vehicle: water",0 of 3 on day 11
same,T/C,[2],"-62, -21 [2 of 3 alive on day 11], 9, 10 [2 of 3 alive on day 11], 18, 24, 25, 26, 44, 50 [2 of 2 alive on day 11], 55, 56, 74, 82, 96, 112, 171 % of control"
same,survivor count,[2],0 of 3 on day 11
same,survivor count,"dose: 4.0 mg/kg/injection, schedule: Q01DX010 (ip), vehicle: water",0 of 3 on day 11
same,T/C,[3],"-62 [2 of 3 alive on day 11], -39, -31, 1, 2 [2 of 3 alive on day 11], 3, 5 [2 of 2 alive on day 11], 6 (2×), 13, 17 [2 of 3 alive on day 11], 26, 30, 56, 144 % of control"
same,survivor count,[3],0 of 2 on day 11 and 1 of 3 on day 11
same,survivor count,"dose: 12.0 mg/kg/injection, schedule: Q01DX010 (sc), vehicle: water",1 of 3 on day 11
C=CC(=O)NCNC(=O)C=C,T/C,"dose: 25.0 mg/kg/injection, schedule: Q01DX010 (sc), vehicle: saline",142 % of control
same,survivor count,"dose: 200.0 mg/kg/injection, schedule: Q01DX010 (sc), vehicle: saline",1 of 3 on day 11
CN(C)C1C(=O)C(C(=O)NP(=O)(NCCCO)N(CCCl)CCCl)=C(O)C2(O)C(=O)C3=C(O)c4c(O)cccc4C(C)(O)C3CC12 (stereo not drawn),survivor count,[4],3 of 6 on day 11
CC(Cc1ccc(O)cc1)NCC(O)c1ccc(O)c(O)c1 (stereo not drawn),survivor count,"dose: 600.0 mg/kg/injection, schedule: Q04DX003 (sc), vehicle: saline with Tween-80",3 of 6 on day 11
C[Si](C)(C)O/C=C1\CCCCC1=O,survivor count,"dose: 800.0 mg/kg/injection, schedule: Q04DX003 (sc), vehicle: saline with Tween-80",3 of 5 on day 11
same,survivor count,[5],1 of 6 on day 11
CC1/C=C/C=C/CC/C=C/C=C/C=C/C=C/C(OC2OC(C)C(O)C(N)C2O)CC2OC(CC(O)C(O)CCC(O)CC(O)CC(O)CC(=O)OC(C)C(C)C1O)CC(O)C2C(=O)O (stereo not drawn),survivor count,[6],3 of 6 on day 11
same,survivor count,[7],2 of 5 on day 11
O=C1NC(=O)C2C3C=CC(C12)C1C2C(=O)NC(=O)C2C31 (stereo not drawn),survivor count,[5],1 of 6 on day 11
same,survivor count,"dose: 3200.0 mg/kg/injection, schedule: Q04DX003 (sc), vehicle: saline with Tween-80",1 of 6 on day 11
CC1OC1C(=O)C1(O)C(C)C(O)C23OC2(C(O)c2c(O)cccc2C3=O)C1O (stereo not drawn),survivor count,"dose: 96.0 mg/kg/injection, schedule: Q04DX003 (sc), vehicle: Klucel (hydroxypropylcellulose) (HPC)",0 of 6 on day 11
C1CN1c1nc(N2CC2)nc(N2CC2)n1,survivor count,"dose: 0.5 mg/kg/injection, schedule: Q01DX010 (sc), vehicle: saline",0 of 3 on day 11 and 2 of 6 on day 11
same,survivor count,"dose: 1.0 mg/kg/injection, schedule: Q01DX010 (sc), vehicle: saline",0 of 3 on day 11 and 0 of 6 on day 11
CCCCc1ccc2nc(NC(=O)OC)[nH]c2c1,T/C,"dose: 100.0 mg/kg/injection, schedule: Q01DX010 (sc), vehicle: saline with Tween-80",145 % of control
CN(C)N=Nc1cn[nH]c1C(N)=O,T/C,"dose: 200.0 mg/kg/injection, schedule: Q04DX003 (sc), vehicle: suspension in saline",149 % of control
same,survivor count,"dose: 1600.0 mg/kg/injection, schedule: Q04DX003 (sc), vehicle: saline",2 of 6 on day 11
same,survivor count,"dose: 1600.0 mg/kg/injection, schedule: Q04DX003 (sc), vehicle: suspension in saline",1 of 6 on day 11
N=c1c(C(=O)OCc2ccccc2)ncc(CCl)n1O,T/C,"dose: 300.0 mg/kg/injection, schedule: Q04DX003 (sc), vehicle: saline with Tween-80",142 % of control
same,T/C,[4],146 % of control
COc1cc2c(c(OC)c1OC)-c1ccc(OC)c(=O)cc1[C@@H](NC(=O)CCl)CC2,survivor count,"dose: 5.0 mg/kg/injection, schedule: Q04DX003 (sc), vehicle: saline with Tween-80",0 of 6 on day 11
same,survivor count,"dose: 10.0 mg/kg/injection, schedule: Q04DX003 (sc), vehicle: saline with Tween-80",0 of 6 on day 11
same,survivor count,"dose: 20.0 mg/kg/injection, schedule: Q04DX003 (sc), vehicle: saline with Tween-80",0 of 6 on day 11
same,survivor count,"dose: 40.0 mg/kg/injection, schedule: Q04DX003 (sc), vehicle: saline with Tween-80",0 of 6 on day 11
O=[N+]([O-])c1c(O)c(CNCCCO)cc(CNCCCO)c1O,survivor count,"dose: 150.0 mg/kg/injection, schedule: Q04DX003 (ip), vehicle: suspension in saline",1 of 6 on day 11
same,survivor count,"dose: 300.0 mg/kg/injection, schedule: Q04DX003 (ip), vehicle: suspension in saline",0 of 6 on day 11
O=C(NO)c1ccc(O)c(O)c1,survivor count,"dose: 1200.0 mg/kg/injection, schedule: Q04DX003 (sc), vehicle: distilled water + Tween-80",3 of 6 on day 11
same,survivor count,"dose: 1600.0 mg/kg/injection, schedule: Q04DX003 (sc), vehicle: other",0 of 6 on day 11
same,survivor count,"dose: 1600.0 mg/kg/injection, schedule: Q04DX003 (sc), vehicle: water",0 of 6 on day 11
NS(=O)(=O)OCCCCCCCOS(N)(=O)=O,survivor count,"dose: 300.0 mg/kg/injection, schedule: Q04DX003 (ip), vehicle: saline with Tween-80",2 of 6 on day 11
same,survivor count,[6],0 of 5 on day 11
same,survivor count,[7],0 of 6 on day 11
O=C([O][Bi]([c]1ccccc1)[c]1ccccc1)c1ccccc1,survivor count,"dose: 200.0 mg/kg/injection, schedule: Q04DX003 (ip), vehicle: Klucel (hydroxypropylcellulose) (HPC)",2 of 6 on day 11
NCc1cc(O)c(O)c(O)c1,survivor count,"dose: 1200.0 mg/kg/injection, schedule: Q04DX003 (ip), vehicle: saline",2 of 6 on day 11
Nc1nc(=S)c2ncn(C3CC(O)C(CO)O3)c2[nH]1 (stereo not drawn),survivor count,"dose: 200.0 mg/kg/injection, schedule: Q01DX010 (sc), vehicle: Klucel (hydroxypropylcellulose) (HPC)",0 of 3 on day 11
same,survivor count,"dose: 400.0 mg/kg/injection, schedule: Q01DX010 (sc), vehicle: Klucel (hydroxypropylcellulose) (HPC)",0 of 3 on day 11
CN(Cc1cnc2nc(N)nc(N)c2n1)c1c(Cl)cc(C(=O)NC(CCC(=O)O)C(=O)O)cc1Cl (stereo not drawn),survivor count,"dose: 100.0 mg/kg/injection, schedule: Q01DX010 (sc), vehicle: Klucel (hydroxypropylcellulose) (HPC)",1 of 3 on day 11
O=[N+]([O-])c1ccc(N(CCO)CCO)c2c1no[n+]2[O-],survivor count,"dose: 100.0 mg/kg/injection, schedule: Q04DX003 (ip), vehicle: saline with Tween-80",3 of 6 on day 11
O=C1c2ccccc2C(=O)c2c(NCCNCCO)ccc(NCCNCCO)c21,survivor count,"dose: 16.0 mg/kg/injection, schedule: Q01DX010 (sc), vehicle: water",0 of 3 on day 11
same,survivor count,"dose: 32.0 mg/kg/injection, schedule: Q01DX010 (sc), vehicle: water",0 of 3 on day 11
same,survivor count,"dose: 106.6 mg/kg/injection, schedule: Q04DX003 (ip), vehicle: water",1 of 2 on day 11
same,survivor count,"dose: 106.6 mg/kg/injection, schedule: Q04DX003 (sc), vehicle: water",1 of 3 on day 11
COc1cc([C@@H]2c3cc4c(c(O)c3C[C@H]3COC(=O)[C@@H]32)OCO4)cc(OC)c1OC,survivor count,"dose: 8.0 mg/kg/injection, schedule: Q01DX010 (sc), vehicle: saline",1 of 3 on day 11
same,survivor count,"dose: 16.0 mg/kg/injection, schedule: Q01DX010 (sc), vehicle: saline",0 of 3 on day 11
